Data from the supplement of paper PMC12823440, “Inhibitors supercharge kinase turnover through native proteolytic circuits” (Nature, 2025).
Where a name gives a salt, the structure may show the parent alone. The list shows a part of the results. The calls rarely recur for the same compound in another form.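 Kinases were expressed as nanoluciferase fusions in K562 cells and luminescence was read every 4 h between 2 and 18 h as percent of control, DMSO set to 100% and a positive control to 0%. A time point counts as decreased when the signal drops significantly (2 sigma). The hit call is the authors' own, does not follow from the count of time points alone, and its rule is not shown.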

Sequences of proteins named here, by UniProt entry; tags and fusion partners are left off. A change or cut given only in a name is not applied to a line headed by its entry.
UniProt Q01974, whole entry: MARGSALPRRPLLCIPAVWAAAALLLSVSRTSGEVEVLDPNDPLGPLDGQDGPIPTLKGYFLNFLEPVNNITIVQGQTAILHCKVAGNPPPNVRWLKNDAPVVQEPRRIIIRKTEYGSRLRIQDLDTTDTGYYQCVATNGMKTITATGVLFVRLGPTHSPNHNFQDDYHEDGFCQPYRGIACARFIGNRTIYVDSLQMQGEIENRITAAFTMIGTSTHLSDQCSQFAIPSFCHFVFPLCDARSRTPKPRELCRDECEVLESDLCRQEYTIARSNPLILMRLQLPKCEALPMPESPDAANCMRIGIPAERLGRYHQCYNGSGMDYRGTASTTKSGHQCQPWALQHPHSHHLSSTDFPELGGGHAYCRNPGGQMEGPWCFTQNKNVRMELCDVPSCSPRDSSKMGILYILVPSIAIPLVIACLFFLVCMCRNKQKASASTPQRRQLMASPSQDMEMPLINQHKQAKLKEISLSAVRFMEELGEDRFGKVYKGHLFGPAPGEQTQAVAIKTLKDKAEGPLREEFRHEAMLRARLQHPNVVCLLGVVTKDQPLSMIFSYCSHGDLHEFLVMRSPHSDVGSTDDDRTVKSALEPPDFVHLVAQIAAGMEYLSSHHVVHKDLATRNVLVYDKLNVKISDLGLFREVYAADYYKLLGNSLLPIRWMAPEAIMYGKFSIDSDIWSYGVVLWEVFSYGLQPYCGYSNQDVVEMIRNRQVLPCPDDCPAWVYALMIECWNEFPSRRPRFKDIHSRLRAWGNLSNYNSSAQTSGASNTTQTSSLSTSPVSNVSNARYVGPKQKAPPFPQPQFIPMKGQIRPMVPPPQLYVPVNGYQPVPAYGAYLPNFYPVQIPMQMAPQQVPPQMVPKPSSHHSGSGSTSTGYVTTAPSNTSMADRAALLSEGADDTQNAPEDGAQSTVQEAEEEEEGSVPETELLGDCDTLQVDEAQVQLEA
UniProt Q15418, whole entry: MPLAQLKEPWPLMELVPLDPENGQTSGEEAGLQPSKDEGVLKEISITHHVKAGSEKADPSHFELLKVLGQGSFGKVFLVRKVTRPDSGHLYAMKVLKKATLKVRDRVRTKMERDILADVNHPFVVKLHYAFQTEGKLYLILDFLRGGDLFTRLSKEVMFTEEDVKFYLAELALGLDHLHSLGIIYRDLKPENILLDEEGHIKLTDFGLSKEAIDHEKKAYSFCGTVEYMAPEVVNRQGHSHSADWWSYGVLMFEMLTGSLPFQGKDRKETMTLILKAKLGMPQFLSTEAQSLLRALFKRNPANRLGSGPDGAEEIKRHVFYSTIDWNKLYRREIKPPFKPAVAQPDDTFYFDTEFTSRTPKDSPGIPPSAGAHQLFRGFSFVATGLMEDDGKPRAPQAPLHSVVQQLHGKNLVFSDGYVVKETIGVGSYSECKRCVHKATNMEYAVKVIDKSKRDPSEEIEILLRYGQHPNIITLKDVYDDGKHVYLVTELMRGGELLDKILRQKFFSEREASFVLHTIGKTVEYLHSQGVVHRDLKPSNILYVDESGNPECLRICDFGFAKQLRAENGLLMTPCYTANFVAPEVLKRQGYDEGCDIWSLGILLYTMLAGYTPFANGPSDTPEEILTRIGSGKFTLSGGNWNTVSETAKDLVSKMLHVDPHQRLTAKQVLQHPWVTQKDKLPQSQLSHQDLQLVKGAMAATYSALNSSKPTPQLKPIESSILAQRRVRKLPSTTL
UniProt Q9NYA1, whole entry: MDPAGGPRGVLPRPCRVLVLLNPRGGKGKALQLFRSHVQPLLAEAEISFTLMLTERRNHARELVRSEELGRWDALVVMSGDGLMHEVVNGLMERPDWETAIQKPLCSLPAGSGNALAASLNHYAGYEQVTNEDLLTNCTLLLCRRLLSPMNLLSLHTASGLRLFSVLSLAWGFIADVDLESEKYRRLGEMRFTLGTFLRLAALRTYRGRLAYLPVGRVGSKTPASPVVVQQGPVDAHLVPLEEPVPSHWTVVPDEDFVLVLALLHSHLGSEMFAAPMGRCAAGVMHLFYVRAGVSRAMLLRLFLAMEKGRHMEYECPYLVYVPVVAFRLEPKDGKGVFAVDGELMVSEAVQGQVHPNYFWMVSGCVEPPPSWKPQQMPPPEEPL
UniProt Q9Y6E0: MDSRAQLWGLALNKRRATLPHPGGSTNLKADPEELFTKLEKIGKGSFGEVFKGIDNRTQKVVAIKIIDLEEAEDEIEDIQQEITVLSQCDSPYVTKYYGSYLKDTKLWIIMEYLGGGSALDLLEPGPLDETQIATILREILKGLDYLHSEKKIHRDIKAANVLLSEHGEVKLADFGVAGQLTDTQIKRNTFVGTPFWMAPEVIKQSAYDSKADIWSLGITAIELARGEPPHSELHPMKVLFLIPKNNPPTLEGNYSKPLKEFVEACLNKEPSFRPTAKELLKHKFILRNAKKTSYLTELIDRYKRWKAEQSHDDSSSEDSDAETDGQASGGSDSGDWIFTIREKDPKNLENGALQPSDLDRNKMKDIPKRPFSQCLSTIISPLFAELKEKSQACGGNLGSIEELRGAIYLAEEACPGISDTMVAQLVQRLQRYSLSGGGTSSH
UniProt Q15208: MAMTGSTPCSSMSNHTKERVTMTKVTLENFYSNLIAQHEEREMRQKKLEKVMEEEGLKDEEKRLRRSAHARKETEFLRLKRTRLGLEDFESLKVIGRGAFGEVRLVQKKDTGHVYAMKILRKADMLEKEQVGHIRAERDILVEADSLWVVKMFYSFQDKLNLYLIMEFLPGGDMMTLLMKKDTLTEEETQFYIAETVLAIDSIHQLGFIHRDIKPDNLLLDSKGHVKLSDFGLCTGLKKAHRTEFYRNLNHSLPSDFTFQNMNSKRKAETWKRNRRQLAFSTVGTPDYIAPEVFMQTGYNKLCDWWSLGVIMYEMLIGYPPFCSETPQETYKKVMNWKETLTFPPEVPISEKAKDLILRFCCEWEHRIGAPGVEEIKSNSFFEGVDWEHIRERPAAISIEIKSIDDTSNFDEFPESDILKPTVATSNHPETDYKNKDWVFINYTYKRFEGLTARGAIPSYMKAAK
UniProt P29597: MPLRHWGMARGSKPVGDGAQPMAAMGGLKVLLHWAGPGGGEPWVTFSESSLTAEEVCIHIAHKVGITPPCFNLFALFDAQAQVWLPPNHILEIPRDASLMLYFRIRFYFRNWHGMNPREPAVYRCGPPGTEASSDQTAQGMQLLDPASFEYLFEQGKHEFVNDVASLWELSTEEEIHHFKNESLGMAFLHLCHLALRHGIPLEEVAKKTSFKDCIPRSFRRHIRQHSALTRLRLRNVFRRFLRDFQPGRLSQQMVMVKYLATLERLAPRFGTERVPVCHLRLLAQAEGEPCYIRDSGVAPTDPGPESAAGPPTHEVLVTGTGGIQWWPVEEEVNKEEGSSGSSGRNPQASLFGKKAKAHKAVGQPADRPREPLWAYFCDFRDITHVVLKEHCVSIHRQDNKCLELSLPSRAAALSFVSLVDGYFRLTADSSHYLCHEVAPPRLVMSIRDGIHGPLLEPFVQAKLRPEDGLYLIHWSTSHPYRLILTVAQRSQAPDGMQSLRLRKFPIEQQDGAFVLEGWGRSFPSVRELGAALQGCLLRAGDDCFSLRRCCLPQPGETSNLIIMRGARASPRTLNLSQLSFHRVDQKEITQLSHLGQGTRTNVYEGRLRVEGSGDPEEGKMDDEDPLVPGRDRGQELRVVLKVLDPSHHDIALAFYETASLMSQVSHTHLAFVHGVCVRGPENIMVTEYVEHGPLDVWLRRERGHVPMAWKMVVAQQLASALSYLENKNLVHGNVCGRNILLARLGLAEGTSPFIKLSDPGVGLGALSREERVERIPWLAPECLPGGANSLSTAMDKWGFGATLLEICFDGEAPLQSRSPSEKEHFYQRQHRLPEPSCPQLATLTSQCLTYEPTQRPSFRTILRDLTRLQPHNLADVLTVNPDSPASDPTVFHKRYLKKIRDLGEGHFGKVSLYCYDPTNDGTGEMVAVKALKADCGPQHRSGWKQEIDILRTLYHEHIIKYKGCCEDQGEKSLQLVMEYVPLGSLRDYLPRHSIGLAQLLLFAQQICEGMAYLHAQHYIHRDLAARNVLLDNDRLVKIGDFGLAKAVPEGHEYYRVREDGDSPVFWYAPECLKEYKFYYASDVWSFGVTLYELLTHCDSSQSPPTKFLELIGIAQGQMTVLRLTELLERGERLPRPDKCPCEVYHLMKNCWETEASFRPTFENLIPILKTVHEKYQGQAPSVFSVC
UniProt Q6PHR2: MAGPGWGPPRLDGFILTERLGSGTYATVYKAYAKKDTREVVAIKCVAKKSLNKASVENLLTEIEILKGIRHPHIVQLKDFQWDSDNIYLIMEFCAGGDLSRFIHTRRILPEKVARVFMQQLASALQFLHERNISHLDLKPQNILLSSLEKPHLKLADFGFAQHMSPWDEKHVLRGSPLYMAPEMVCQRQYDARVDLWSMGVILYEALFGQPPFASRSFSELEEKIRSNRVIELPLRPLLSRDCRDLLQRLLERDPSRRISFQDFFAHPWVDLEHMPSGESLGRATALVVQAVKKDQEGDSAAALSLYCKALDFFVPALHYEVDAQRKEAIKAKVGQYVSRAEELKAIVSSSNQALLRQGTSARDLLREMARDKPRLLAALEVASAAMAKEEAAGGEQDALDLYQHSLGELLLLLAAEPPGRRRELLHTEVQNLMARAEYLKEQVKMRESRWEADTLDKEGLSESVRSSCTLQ
UniProt P07947, whole entry, looked up: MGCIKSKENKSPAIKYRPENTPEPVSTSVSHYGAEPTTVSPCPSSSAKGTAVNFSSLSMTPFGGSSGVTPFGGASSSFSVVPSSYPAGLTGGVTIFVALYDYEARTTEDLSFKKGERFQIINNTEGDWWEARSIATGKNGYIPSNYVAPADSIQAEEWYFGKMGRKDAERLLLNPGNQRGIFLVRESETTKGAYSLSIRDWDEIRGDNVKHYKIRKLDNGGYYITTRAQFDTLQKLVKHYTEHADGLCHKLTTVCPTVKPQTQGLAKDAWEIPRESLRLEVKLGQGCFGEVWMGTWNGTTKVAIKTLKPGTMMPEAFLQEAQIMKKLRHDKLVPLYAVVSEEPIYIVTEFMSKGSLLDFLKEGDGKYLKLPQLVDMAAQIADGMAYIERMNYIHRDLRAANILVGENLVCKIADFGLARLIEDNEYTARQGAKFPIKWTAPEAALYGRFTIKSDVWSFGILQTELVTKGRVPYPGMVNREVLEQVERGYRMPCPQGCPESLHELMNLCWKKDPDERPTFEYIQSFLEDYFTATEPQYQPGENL
UniProt P43403: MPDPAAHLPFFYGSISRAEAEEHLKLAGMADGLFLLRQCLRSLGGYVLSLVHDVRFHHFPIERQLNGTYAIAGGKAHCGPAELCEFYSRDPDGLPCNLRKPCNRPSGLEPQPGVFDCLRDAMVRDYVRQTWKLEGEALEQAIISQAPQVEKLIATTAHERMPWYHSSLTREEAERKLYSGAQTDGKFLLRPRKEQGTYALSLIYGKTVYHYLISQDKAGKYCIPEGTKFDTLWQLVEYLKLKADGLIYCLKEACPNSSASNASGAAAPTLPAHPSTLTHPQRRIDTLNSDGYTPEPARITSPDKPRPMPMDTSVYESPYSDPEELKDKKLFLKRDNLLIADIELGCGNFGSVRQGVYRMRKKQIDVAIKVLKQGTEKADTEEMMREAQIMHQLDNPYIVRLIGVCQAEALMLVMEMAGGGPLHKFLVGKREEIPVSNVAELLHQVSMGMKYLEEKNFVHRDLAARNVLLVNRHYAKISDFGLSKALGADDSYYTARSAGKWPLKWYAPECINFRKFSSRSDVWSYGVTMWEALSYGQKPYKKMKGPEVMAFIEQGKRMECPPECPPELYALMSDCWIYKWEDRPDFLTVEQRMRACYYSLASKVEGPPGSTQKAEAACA
UniProt P50613: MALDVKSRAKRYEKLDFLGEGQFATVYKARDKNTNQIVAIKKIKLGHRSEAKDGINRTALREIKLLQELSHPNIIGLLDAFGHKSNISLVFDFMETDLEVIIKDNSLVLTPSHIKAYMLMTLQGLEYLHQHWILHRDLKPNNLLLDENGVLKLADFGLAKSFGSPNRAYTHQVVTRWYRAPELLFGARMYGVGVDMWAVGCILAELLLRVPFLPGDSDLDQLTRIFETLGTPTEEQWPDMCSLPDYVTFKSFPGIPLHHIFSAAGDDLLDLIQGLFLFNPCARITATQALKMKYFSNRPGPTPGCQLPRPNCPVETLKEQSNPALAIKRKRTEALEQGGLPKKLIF
UniProt P50750, whole entry: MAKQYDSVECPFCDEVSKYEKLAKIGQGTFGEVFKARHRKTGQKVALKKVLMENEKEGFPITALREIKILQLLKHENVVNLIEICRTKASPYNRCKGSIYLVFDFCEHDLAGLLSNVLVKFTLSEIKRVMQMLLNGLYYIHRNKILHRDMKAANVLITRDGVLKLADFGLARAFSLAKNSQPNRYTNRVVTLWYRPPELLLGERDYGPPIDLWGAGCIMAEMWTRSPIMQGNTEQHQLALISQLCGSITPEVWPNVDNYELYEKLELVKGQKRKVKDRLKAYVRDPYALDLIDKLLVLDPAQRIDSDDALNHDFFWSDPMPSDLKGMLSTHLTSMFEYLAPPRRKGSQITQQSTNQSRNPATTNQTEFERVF

Experiments:
Conditions in all cases: K562; 2-18 h
ROR2 = ROR2 (UniProt Q01974); experiment: number of time points (of 5) at which kinase-Nluc abundance scored as decreased, DMSO-normalised (count); higher = more persistent destabilization
RPS6KA1 = RPS6KA1 (UniProt Q15418); experiment: as above
SPHK1 = SPHK1 (UniProt Q9NYA1); experiment: as above
SRC = SRC (UniProt P12931); experiment: as above
STK24 = STK24 (UniProt Q9Y6E0); experiment: as above
STK38 = STK38 (UniProt Q15208); experiment: as above
SYK = SYK (UniProt P43405); experiment: as above
TEC = TEC (UniProt P42680); experiment: as above
TYK2 = TYK2 (UniProt P29597); experiment: as above
ULK3 = ULK3 (UniProt Q6PHR2); experiment: as above
YES1 = YES1 (UniProt P07947); experiment: as above
ZAK = ZAK (UniProt Q9NYL2); experiment: as above
ZAP70 = ZAP70 (UniProt P43403); experiment: as above
CDK4 = CDK4 (UniProt P11802); experiment: number of time points (of 4; 2 h point missing) at which kinase-Nluc abundance scored as decreased, DMSO-normalised (count); higher = more persistent destabilization
CDK7 = CDK7 (UniProt P50613); experiment: as above
CDK9 = CDK9 (UniProt P50750); experiment: as above

Measured: number of time points

C[C@]1(O)CCN(c2nc(N3C[C@H](O)[C@@H](O)C3)cc(C(F)(F)F)c2C#N)C1 (10 µM)
0: all assays above

COc1ncc(Cl)cc1S(=O)(=O)Nc1ccc(F)c(C#Cc2cnc(N)nc2)c1F (2.5 µM)
0: all assays above

COc1ccc(-c2ccc3c(N4CCOCC4)nc(N4C[C@@H](C)O[C@@H](C)C4)nc3n2)cc1CO (2.5 µM)
0: all assays above

O=c1[nH]c(=O)n([C@@H]2O[C@H](CO)[C@@H](O)[C@@H]2O)cc1/C=C/Br [Sorivudine] (10 µM)
0: all assays above

Cc1c(NC(=O)c2cccn(-c3ccc(F)cc3)c2=O)ccc(Oc2ccnc(NC(=O)C3CC3)c2)c1C (2 µM)
1: YES1
3: TYK2 | CDK7
0: all other assays above

CCN1CCN(Cc2ccc(Nc3ncc(F)c(-c4cc(F)c5nc(C)n(C(C)C)c5c4)n3)nc2)CC1 [Abemaciclib] (2 µM)
not listed: STK38 | TYK2
0: all other assays above

Cc1[nH]c(/C=C2\C(=O)Nc3ccccc32)c(C)c1CCC(=O)O [(Z)-Orantinib] (10 µM)
not listed: RPS6KA1
0: all other assays above

N#Cc1c(C2CCNCC2)cc(-c2c(O)cccc2OCC2CC2)nc1N [ACHP (Hydrochloride)] (10 µM)
0: all assays above

Cc1ccc2nc(NCCN)c3ncc(C)n3c2c1 (2.5 µM)
not listed: TYK2
0: all other assays above

COc1cc(Nc2ncc(F)c(Nc3ccc4c(n3)NC(=O)C(C)(C)O4)n2)cc(OC)c1OC [R406 (free base)] (10 µM)
not listed: SYK
0: all other assays above

Cc1cccc(-c2[nH]ncc2-c2ccc(F)c(-c3cnn(CCO)c3)c2)n1 (10 µM)
0: all assays above

O=C(CSC1=NCCN1)NC1CCCCCC1 [ICCB-19 (hydrochloride)] (2.5 µM)
0: all assays above

C[C@@H]1CCN(C(=O)CC#N)C[C@@H]1N(C)c1ncnc2[nH]ccc12 [Tofacitinib] (10 µM)
not listed: SYK
0: all other assays above

CNC(=O)c1c(F)cccc1Nc1nc(Nc2cc3c(cc2OC)CCN3C(=O)CN(C)C)nc2[nH]ccc12 (10 µM)
0: all assays above

Cc1[nH]c(/C=C2\C(=O)Nc3ccc(F)cc32)c(C)c1C(=O)N[C@H]1CCN(C(=O)N(C)C)C1 [Vorolanib] (10 µM)
0: all assays above

c1cc(-c2c[nH]c3nccc(N4CCC[C@@]5(CCCCN5)C4)c23)ncn1 (10 µM)
0: all assays above

C=C1C(=O)O[C@H]2C[C@H](C)C(/C=C/C(C)=O)=CC[C@H]12 [Xanthatin] (2.5 µM)
0: all assays above

NC(=O)c1nc(Nc2ccccc2)sc1NC(=O)C1CCCCC1 (10 µM)
0: all assays above

Cc1[nH]c(/C=C2\C(=O)Nc3ccccc32)c(C)c1CCC(=O)O [Orantinib] (10 µM)
not listed: RPS6KA1
0: all other assays above

COc1cc2ncc(-c3ccccc3)nc2cc1OC [Tyrphostin AG1296] (10 µM)
0: all assays above

CCS(=O)(=O)c1ncc(Cl)c(C(=O)N(Cc2ccc(Cl)cc2)Cc2ccco2)n1 (2.5 µM)
0: all assays above

CC1(C)C(O[C@@H]2OC[C@@H](O)[C@H](O)[C@H]2O)CC[C@]23CC24CC[C@]2(C)[C@@H]([C@@]5(C)CC[C@@H](C(C)(C)O)O5)[C@H](O)C[C@@]2(C)C4C[C@@H](O[C@@H]2O[C@H](CO)[C@@H](O)[C@H](O)[C@H]2O)C13 (stereo not given in full) [Astragaloside IV] (10 µM)
0: all assays above

O=Nc1c(-c2c(O)[nH]c3ccc(I)cc23)[nH]c2ccccc12 [5-Iodo-indirubin-3'-monoxime] (10 µM)
0: all assays above

O=C([O-])c1cc2ccccc2c(Cc2c(O)c(C(=O)[O-])cc3ccccc23)c1O.[Na+].[Na+] [Pamoic acid (disodium)] (10 µM)
0: all assays above

O=C(Nc1cn[nH]c1-c1ccccn1)c1nn(C2CCNCC2)cc1Cl (10 µM)
0: all assays above

S=C(SSC(=S)N1CCOCC1)N1CCOCC1 (10 µM)
3: TEC
1: ROR2 | TYK2
5: ULK3
0: all other assays above

O=C(O)CCC(=O)Nc1ccc(Br)cn1 [Bikinin] (10 µM)
0: all assays above

Nc1ccc(-c2cnc(N)c(-c3ccc(Cl)cc3)c2)cn1 (10 µM)
0: all assays above

NC(=O)c1ccc(-c2nc(-c3ccc4c(c3)OCCO4)c(-c3ccccn3)[nH]2)cc1 (10 µM)
0: all assays above

Oc1cc(O)c2cc(O)c(-c3cc(O)c(O)c(O)c3)[o+]c2c1 [Delphinidin (chloride)] (10 µM)
2: RPS6KA1 | CDK4
1: ZAK | CDK7
3: SYK | TYK2 | ZAP70
0: all other assays above

Cc1ccc(C(=O)Nc2ccc(Oc3cc4cnn(C)c4cc3-c3cn[nH]c3)c(F)c2)c(=O)n1-c1ccc(F)cc1 [Merestinib dihydrochloride] (2.5 µM)
0: all assays above

COc1cc(Nc2ncc(F)c(Nc3ccc4c(n3)NC(=O)C(C)(C)O4)n2)cc(OC)c1OC (10 µM)
not listed: SYK
0: all other assays above

CC(=O)NC1CC(n2cnc(NC(=O)Cc3ccc4ccccc4c3)c2)C1 (stereo not given) (10 µM)
0: all assays above
